Data: the supplement of paper PMC8728848
The other results are listed elsewhere or left out.

Assays:
Experiment in all cases: glycan array binding signal (z-score within array); higher = stronger binding
Conditions in all cases: glycan notation: IUPAC condensed, linker removed
[1] = target: Neu5Ac(a2-3)Gal(b1-4)GlcNAc(b1-6)GalNAc
Summary of the method: (§1)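 Glycan array data were curated from 3228 arrays in the Consortium for Functional Glycomics database and kept only where the protein sequence was available. Glycan names were converted to IUPAC-condensed notation, and columns mapping to the same glycan were averaged. The binding signal is a within-array Z-score, averaged across arrays of the same protein sequence at different concentrations or buffers and across linkers. Negative Z-scores can be read as non-binding.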

[2] = target: Neu5Ac(a2-3)Gal(b1-4)GlcNAc(b1-6)[Gal(b1-3)]GalNAc
Summary of the method: as §1

[3] = target: Neu5Ac(a2-3)Gal(b1-4)GlcNAc(b1-6)[Neu5Ac(a2-3)Gal(b1-3)]GalNAc
Summary of the method: as §1

[4] = target: Neu5Ac(a2-3)Gal(b1-4)GlcNAc6S
Summary of the method: as §1

[5] = target: Neu5Ac(a2-3)Gal(b1-4)[Fuc(a1-3)]GlcNAc
Summary of the method: as §1

[6] = target: Neu5Ac(a2-3)Gal(b1-4)[Fuc(a1-3)]GlcNAc(b1-2)Man
Summary of the method: as §1

[7] = target: Neu5Ac(a2-3)Gal(b1-4)[Fuc(a1-3)]GlcNAc(b1-3)Gal
Summary of the method: as §1

[8] = target: Neu5Ac(a2-3)Gal(b1-4)[Fuc(a1-3)]GlcNAc(b1-3)Gal(b1-4)GlcNAc
Summary of the method: as §1

[9] = target: Neu5Ac(a2-3)Gal(b1-4)[Fuc(a1-3)]GlcNAc(b1-3)Gal(b1-4)[Fuc(a1-3)]GlcNAc(b1-3)Gal(b1-4)[Fuc(a1-3)]GlcNAc
Summary of the method: as §1

[10] = target: Neu5Ac(a2-3)Gal(b1-4)[Fuc(a1-3)]GlcNAc(b1-3)GalNAc
Summary of the method: as §1

[11] = target: Neu5Ac(a2-3)Gal(b1-4)[Fuc(a1-3)]GlcNAc(b1-6)[Gal(b1-3)]GalNAc
Summary of the method: as §1

[12] = target: Neu5Ac(a2-3)Gal(b1-4)[Fuc(a1-3)]GlcNAc(b1-6)[Neu5Ac(a2-3)Gal(b1-3)]GalNAc
Summary of the method: as §1

[13] = target: Neu5Ac(a2-3)Gal(b1-4)[Fuc(a1-3)]GlcNAc6S
Summary of the method: as §1

[14] = target: Neu5Ac(a2-3)Gal6S(b1-4)GlcNAc
Summary of the method: as §1

[15] = target: Neu5Ac(a2-3)Gal6S(b1-4)[Fuc(a1-3)]GlcNAc
Summary of the method: as §1

Neu5Ac(a2-3)GalNAc = target: Neu5Ac(a2-3)GalNAc
Summary of the method: as §1

[16] = target: Neu5Ac(a2-3)GalNAc(b1-4)GlcNAc
Summary of the method: as §1

[17] = target: Neu5Ac(a2-3)[GalNAc(b1-4)]Gal(b1-4)Glc
Summary of the method: as §1

[18] = target: Neu5Ac(a2-3)[GalNAc(b1-4)]Gal(b1-4)GlcNAc
Summary of the method: as §1

[19] = target: Neu5Ac(a2-3)[GalNAc(b1-4)]Gal(b1-4)GlcNAc(b1-3)GalNAc
Summary of the method: as §1

[20] = target: Neu5Ac(a2-3)[Neu5Ac(a2-6)]GalNAc
Summary of the method: as §1

Neu5Ac(a2-6)Gal = target: Neu5Ac(a2-6)Gal
Summary of the method: as §1

[21] = target: Neu5Ac(a2-6)Gal(b1-3)GlcNAc(b1-3)[Gal(b1-4)GlcNAc(b1-6)]Gal(b1-4)Glc
Summary of the method: as §1

Neu5Ac(a2-6)Gal(b1-4)Glc = target: Neu5Ac(a2-6)Gal(b1-4)Glc
Summary of the method: as §1

[22] = target: Neu5Ac(a2-6)Gal(b1-4)GlcNAc
Summary of the method: as §1

[23] = target: Neu5Ac(a2-6)Gal(b1-4)GlcNAc(b1-2)Man
Summary of the method: as §1

[24] = target: Neu5Ac(a2-6)Gal(b1-4)GlcNAc(b1-2)Man(a1-3)Man(b1-4)GlcNAc(b1-4)GlcNAc
Summary of the method: as §1

[25] = target: Neu5Ac(a2-6)Gal(b1-4)GlcNAc(b1-2)Man(a1-3)[Gal(b1-4)GlcNAc(b1-2)Man(a1-6)]Man(b1-4)GlcNAc(b1-4)GlcNAc
Summary of the method: as §1

[26] = target: Neu5Ac(a2-6)Gal(b1-4)GlcNAc(b1-2)Man(a1-3)[GlcNAc(b1-2)Man(a1-6)]Man(b1-4)GlcNAc(b1-4)GlcNAc
Summary of the method: as §1

[27] = target: Neu5Ac(a2-6)Gal(b1-4)GlcNAc(b1-2)Man(a1-3)[GlcNAc(b1-4)][Neu5Ac(a2-6)Gal(b1-4)GlcNAc(b1-2)Man(a1-6)]Man(b1-4)GlcNAc(b1-4)GlcNAc
Summary of the method: as §1

B1: CD4 (Rattus norvegicus), P05540 (protein)
chain: MCRGFSFRHLLPLLLLQLSKLLVVTQGSTSITAYKSEGESAEFSFPLNLGEESLQGELRWKAEKAPSSQSWITFSLKNQKVSVQKSTSNPKFQLSETLPLTLQIPQVSLQFAGSGNLTLTLDRGILYQEVNLVVMKVTQPDSNTLTCEVMGPTSPKMRLILKQENQEARVSRQEKVIQVQAPEAGVWQCLLSEGEEVKMDSKIQVLSKGLNSGGGSGGGTGGGDLAPQMLRELQETNAALQDVRELLRQQVKEITFLKNTVMECDACGLDRNLPPLAPLGPHPETLVKVKDAEDQLGARVGYIELDLNSGKILESFRPEERFPMMSTFKVLLCGAVLSRIDAGQEQLGRRIHYSQNDLVEYSPVTEKHLTDGMTVRELCSAAITMSDNTAANLLLTTIGGPKELTAFLHNMGDHVTRLDRWEPELNEAIPNDERDTTMPVAMATTLRKLLTGELLTLASRQQLIDWMEADKVAGPLLRSALPAGWFIADKSGAGERGSRGIIAALGPDGKPSRIVVIYTTGSQATMDERNRQIAEIGASLIKHW
glycan array binding signal (z-score) [1]: -1.06
glycan array binding signal (z-score) [2]: 2.02
glycan array binding signal (z-score) [3]: 1.19
glycan array binding signal (z-score) [4]: -0.502
glycan array binding signal (z-score) [5]: -0.583
glycan array binding signal (z-score) [6]: 0.582
glycan array binding signal (z-score) [7]: -1.08
glycan array binding signal (z-score) [8]: 0.621
glycan array binding signal (z-score) [9]: 0.072
glycan array binding signal (z-score) [10]: 2.77
glycan array binding signal (z-score) [11]: 0.882
glycan array binding signal (z-score) [12]: 0.635
glycan array binding signal (z-score) [13]: -0.73
glycan array binding signal (z-score) [14]: 0.151
glycan array binding signal (z-score) [15]: -1.1
glycan array binding signal (z-score) (Neu5Ac(a2-3)GalNAc): 0.02
glycan array binding signal (z-score) [16]: -1.32
glycan array binding signal (z-score) [17]: -0.796
glycan array binding signal (z-score) [18]: -0.578
glycan array binding signal (z-score) [19]: -0.449
glycan array binding signal (z-score) [20]: 0.448
glycan array binding signal (z-score) (Neu5Ac(a2-6)Gal): -0.159
glycan array binding signal (z-score) [21]: 0.152
glycan array binding signal (z-score) (Neu5Ac(a2-6)Gal(b1-4)Glc): -0.538
glycan array binding signal (z-score) [22]: -0.837
glycan array binding signal (z-score) [23]: 0.122
glycan array binding signal (z-score) [24]: 0.03
glycan array binding signal (z-score) [25]: -0.103
glycan array binding signal (z-score) [26]: -0.367
glycan array binding signal (z-score) [27]: -0.17
